Assay results reported in ChEMBL document CHEMBL4616590, “Therapeutic significance of β-glucuronidase activity and its inhibitors: A review” (Eur J Med Chem, 2020).

Legend:
[1] = target: T1, Beta-glucuronidase (Homo sapiens) (UniProt P08236); assay: Inhibition of whole human gut bacterial beta-glucuronidase relative to control; settings: concentration not given here
T1 sequence (whole entry): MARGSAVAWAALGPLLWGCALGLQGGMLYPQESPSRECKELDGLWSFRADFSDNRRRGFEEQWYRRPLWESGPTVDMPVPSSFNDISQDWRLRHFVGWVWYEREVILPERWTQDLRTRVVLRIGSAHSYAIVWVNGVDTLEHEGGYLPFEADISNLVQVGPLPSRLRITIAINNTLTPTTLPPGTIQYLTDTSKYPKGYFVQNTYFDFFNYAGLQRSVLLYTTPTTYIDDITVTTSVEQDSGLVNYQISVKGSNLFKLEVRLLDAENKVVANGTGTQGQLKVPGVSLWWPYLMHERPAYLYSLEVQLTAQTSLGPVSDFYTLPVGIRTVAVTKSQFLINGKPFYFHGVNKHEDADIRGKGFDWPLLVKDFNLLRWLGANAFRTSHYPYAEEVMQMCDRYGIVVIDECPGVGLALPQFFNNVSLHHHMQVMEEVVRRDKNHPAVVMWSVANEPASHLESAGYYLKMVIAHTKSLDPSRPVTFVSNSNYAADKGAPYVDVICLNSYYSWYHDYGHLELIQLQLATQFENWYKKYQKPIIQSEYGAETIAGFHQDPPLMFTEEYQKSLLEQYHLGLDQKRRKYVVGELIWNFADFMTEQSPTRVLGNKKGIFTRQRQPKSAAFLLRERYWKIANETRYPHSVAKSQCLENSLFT

[2] = Inhibition of bacterial beta-glucuronidase using p-nitrophenyl-beta-D-glucuronide as substrate after 1 hr; design: species or system Bacteria

Structure (SMILES): Clc1ccc2c(c1)C(N1CCNCC1)=Nc1ccccc1O2 [AMOXAPINE]
- inhibition [1]: 7.3%
- IC50 [2]: 530 nM
